Measurements reported in publication PMC4122391, “Analysis of Functions of VIP1 and Its Close Homologs in Osmosensory Responses of Arabidopsis thaliana”.
No constants are given. Whether binding was seen depends on the method and setting. A result given as binding can be weak or reduced; the word gives no strength. Sequences can lack the tags named with a protein. For some of these results: Binding seen in cells or lysates may run through a third protein.

Assays:
[1] = target: T1, GAL4 DNA-binding domain-fused VIP1ΔN164 (C-terminal region, amino acids 165–341, of VIP1) (Arabidopsis thaliana) (UniProt Q9MA75); assay: two-hybrid; S. cerevisiae AH109 co-transformed with pGBKT7-VIP1ΔN164 (GAL4 BD fusion, bait) and pGADT7-Rec constructs (GAL4 AD fusions); growth on SD medium lacking adenine and histidine; BD alone as control
T1 sequence: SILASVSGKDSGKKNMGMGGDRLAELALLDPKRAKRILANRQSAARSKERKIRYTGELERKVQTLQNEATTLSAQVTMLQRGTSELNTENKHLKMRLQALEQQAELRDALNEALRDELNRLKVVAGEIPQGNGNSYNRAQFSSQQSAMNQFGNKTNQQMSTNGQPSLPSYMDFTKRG

[2] = target: T2, VIP1 fused to nYFP or to cYFP (BiFC constructs) (Arabidopsis thaliana) (UniProt Q9MA75); assay: split reporter; BiFC: nYFP-fused VIP1 and cYFP-fused proteins co-introduced into onion epidermal cells by particle bombardment; YFP fluorescence by epifluorescence microscopy; nYFP alone and cYFP alone as negative controls
T2 sequence: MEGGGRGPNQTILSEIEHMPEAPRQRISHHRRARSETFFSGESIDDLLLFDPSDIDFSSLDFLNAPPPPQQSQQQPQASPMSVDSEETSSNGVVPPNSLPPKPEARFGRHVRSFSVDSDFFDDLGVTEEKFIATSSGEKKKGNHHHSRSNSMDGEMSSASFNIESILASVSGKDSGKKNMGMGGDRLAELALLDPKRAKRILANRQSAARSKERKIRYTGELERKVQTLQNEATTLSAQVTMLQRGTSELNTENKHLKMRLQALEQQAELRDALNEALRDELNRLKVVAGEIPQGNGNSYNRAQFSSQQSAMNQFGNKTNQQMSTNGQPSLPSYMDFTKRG

Row | binding [1] | binding [2] | Substance
1 | binds | – | GAL4 activation domain-fused AtbZIP29 (Arabidopsis thaliana)
2 | binds | – | GAL4 activation domain-fused AtbZIP30 (Arabidopsis thaliana)
3 | binds | – | GAL4 activation domain-fused AtbZIP52 (Arabidopsis thaliana)
4 | – | binds | cYFP-fused AtbZIP52 (Arabidopsis thaliana)
